Results on 66 sequences are retold here after PubChem BioAssay AID1347423 (Functional Genomics Laboratory (NCATS/FGL), 2020).

In all, about 52,000 sequences went through this assay and about 210 (0.4%) were called active.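 The calls were made as follows: active = gene whose silencing raises cell survival under the drug, median off-target-corrected z-score across its silencing RNAs 2 or more; inactive = the rest.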 The list shows a part of the results.

This assay is described as follows: Resistance to Poly (ADP-Ribose) Polymerase inhibitor: Gene Identification via Genome-wide siRNA Screen. Particulars: mouse BRCA2 R2336H ES cells, olaparib, CellTiter-Glo viability; hits give high values. The essentials: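 Genome-wide siRNA screen (3 siRNAs/gene, 20 nM) in mouse ES cells carrying hypomorphic BRCA2 R2336H; olaparib 500 nM added 48 h post-transfection, CellTiter-Glo viability 72 h later. Normalized to plate-median negative control; MAD z-scores, gene median, seed-adjusted.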
A general note: ATP-based viability assays read luminescence as a measure of living cells.
With GGAUGUGUCUCACUUCUUGTT against Th, the z-score is inactive: 0.27.
In the case of CGAGCUGAACAGAAUGAUATT against Krt2-18, the z-score is inactive: -0.00799.
Next, GGAAAUUGUCAGGUCCUACTT against Rad50: inactive: -0.397; GCAUAAAAUUGUGUUUCGUTT against Slc39a6: inactive: 0.398; GGAUUCUGAAGUGUAAAGATT against Icos: inactive: -0.0317.
Then GGAGAAAAUUUUGUCACUGTT against Olfr437, with inactive: 0.241; and GCUCUUUUUACUAUGUCAATT against Col4a3, with inactive: -0.162.
Then “GGAGCAUGGUGUGUUGUGATT against 9830005G06Rik”, with inactive: -0.907.
With GGAGAAUGAAGAAGAUAAUTT against Taf5l, the z-score is inactive: -0.129.
Next, GCCAUCAACAGCAUUUACATT against Glt8d2: inactive: -0.324; GGUCAAAUAUAUGCUUGGGTT against Chc1l: inactive: -0.461; GGCUUUUAGAUUUGUUUCATT against Hspa9a: inactive: -1.41.
In the case of GGCUUGGGUGCAACUGAAATT against Mrps26, the z-score is inactive: -2.93.
Then GGAAUAUUGUGGCCUUAUATT against Bnip3, with inactive: -1.03; and “GGGAUAACACUCCUGUUUUTT against F630111L10Rik”, with inactive: 1.17.
GGAACGAGACCUGAAAAUUTT against Myh11: the z-score was inactive: 0.52.
“GGAGUAUUUUCCUCUCUGUTT against D930047P17Rik”: the z-score was inactive: -1.95.
Next, GCGGUGUUUAAGCAUUGAUTT against Obrgrp: inactive: -2.28; GGAAAAAUACUCCAUAUUCTT against Enam: inactive: 0.53.
Then CGAUUGCUACGGAUAUUAUTT against Cdkal1, with inactive: -1.38.
Then GGUUGGUGACACAGUGCAATT against Tcl1b2, with inactive: 0.407.
Take “GCAAUACGGAGUCUAGCCCTT against C630028N24Rik”: the z-score is inactive: 0.0163.
Next, “GGUUGUGCACAGCAGUGUUTT against 2300002G24Rik”: inactive: -0.779; GGGAAACAGUGAAAAGUUCTT against BC038925: inactive: -0.713; GGUGAUCUUAGAUUUGAUUTT against Qscn6l1: inactive: 2.59.
Regarding CGUGUGUGAUUAAGUCUUATT against Bhlhb4, the z-score was inactive: -0.909.
As to “GGCGUAGAUGAGUUGGAAATT against 3930402F23Rik”, the z-score is inactive: -0.642.
Then CGGCAAUACCAUCAACAAGTT against Chrne, with inactive: -0.0891.
In the case of GGCAUCUCCUCGAAUUUAUTT against Theg, the z-score is inactive: -0.712.
Take “GCAGAAAUACUGGCGAAUATT against 4631402N15Rik”: the z-score is inactive: 0.00908.
Next, CCCGAAUGCAAUCCUUUGGTT against Phgdh: inactive: -1.79.
Then GGACAGUUCUCUCUGCACUTT against Tsp50, with inactive: -0.4; and CGUGCCAAUUGAAAAAAACTT against Park2, with inactive: -0.16.
Then “GGAACUAACACAUGAGUCUTT against D630004N19Rik”, with inactive: 0.371.
Turning to CCAAUCCUGGAAUUGCCGATT against Gnb1l, the z-score is inactive: -1.2.
Then GCACUGAAAGAAUUCGACUTT against Strn3, with inactive: 1.43; and GCCCAAUGAUUUCUCUUGUTT against Serpinb3d, with inactive: -1.05.
Then “GGUCUUUGAUGUUUUCACCTT against 4632412N22Rik”, with inactive: -0.391.
Turning to GGAGGAGGUUCUUCAGUACTT against Aplp2, the z-score is inactive: -0.568.
GGCCAAGGAAGAGAUCAUGTT against Ap4s1: the z-score was inactive: -0.72.
For the sequence GGCCACCAUGAAAGACGACTT against Eif3s1, the z-score was inactive: 0.654.
As to CCCUGUACGUUGUCUAUAATT against Olfml3, the z-score was inactive: 0.0378.
Then GGCCCAUUGAUCUGUGAUATT against Klk8, with inactive: -0.338; and GGGACCGUGCUCUUUAACCTT against Nr0b1, with inactive: -0.128.
Next, GGAUCGAAGCAGAACUGCATT against Hipk3: inactive: -1.57; GGAUGUUGAGGAGUUUUUUTT against Trp53: inactive: 4.48.
On to GCUUCAGGACGACUUCUACTT against Fzr1, for which the z-score is inactive: -0.915.
GGAGGGUCUUGGAUAUGUGTT against Olfr1337: the z-score was inactive: 0.287.
Next, GCCUGUAUAGAUGCUAUUCTT against BC010250: inactive: -2.81; GCCAUUGACUGUACAGGUUTT against Gm226: inactive: -0.799.
Next, “CCUAUGAUUCCAAAAAGGUTT against A130022J15Rik”: inactive: 0.673; GGAGUUUGUCAUCAUGGGCTT against Gpr4: inactive: -1.64.
For “GGAACUGAUUGAAAACAUCTT against 1700013H19Rik”, the z-score was inactive: 1.
Turning to “GGCUGUCAUACUUUCAGGGTT against 4933439A12Rik”, the z-score is inactive: -0.076.
Next, CGUGUAUAAUGGCCAGCUUTT against Lamp1: inactive: -1.6; GGAGCUGUUGAAAGAAUAUTT against Tnfrsf19l: inactive: -1.17.
As to “GGUCAGAGUACCUCAAAGGTT against 4930550L24Rik”, the z-score is inactive: 0.606.
Then “GGUGUUCGAGAAGCUGAAGTT against 1110020L19Rik”, with inactive: 1.66.
For the sequence GGUUCUUCAAUGGCAUUGGTT against Neil1, the z-score was inactive: -0.488.
Next, GGAACUGGAAGAGAAUGAGTT against Sdc4: inactive: -0.414; CCUCAAGUCUAAUUCUCAUTT against AI413631: inactive: 1.08; GGGAAGAAGAGAUUCUGAUTT against Cep2: inactive: 1.11.
Next, GGAAUUGAAAUGUCAGAAGTT against Pxmp3: inactive: -1.72; CCCAGGAGUUUAGAUGUAUTT against C1qtnf6: inactive: -0.658; GGAGAAAAUCACUUCUCCATT against Smarca1: inactive: 1.16.
Next, GGACCUGAAGUGUUUAGUCTT against Magoh: inactive: -2.7.
